## Drug screen on melanoma cell lines: cell count

Source: doi:10.1371/journal.pone.0140310, primary screening data, rounded.

Compounds and concentrations:
A-769662 (2 µM): N#Cc1c(O)c2c(-c3ccc(-c4ccccc4O)cc3)csc2[nH]c1=O
everolimus (0.02 µM): CO[C@H]1C[C@@H]2CC[C@@H](C)[C@@](O)(O2)C(=O)C(=O)N2CCCC[C@H]2C(=O)O[C@H]([C@H](C)C[C@@H]2CC[C@@H](OCCO)[C@H](OC)C2)CC(=O)[C@H](C)/C=C(\C)[C@@H](O)[C@@H](OC)C(=O)[C@H](C)C[C@H](C)/C=C/C=C/C=C/1C
cediranib (0.4 µM): COc1cc2c(Oc3ccc4[nH]c(C)cc4c3F)ncnc2cc1OCCCN1CCCC1
ENMD-2076 (0.04 µM): Cc1cc(Nc2cc(N3CCN(C)CC3)nc(/C=C/c3ccccc3)n2)n[nH]1
fludarabine (0.2 µM): Nc1nc(F)nc2c1ncn2[C@@H]1O[C@H](CO)[C@@H](O)[C@@H]1O
CHIR-265 (0.08 µM): Cn1c(Nc2ccc(C(F)(F)F)cc2)nc2cc(Oc3ccnc(-c4ncc(C(F)(F)F)[nH]4)c3)ccc21
OSI-906 (0.4 µM): C[C@]1(O)C[C@@H](c2nc(-c3ccc4ccc(-c5ccccc5)nc4c3)c3c(N)nccn32)C1
pioglitazone (2 µM): CCc1ccc(CCOc2ccc(CC3SC(=O)NC3=O)cc2)nc1 (stereo not shown)
NVP-BEZ235 (0.004 µM): Cn1c(=O)n(-c2ccc(C(C)(C)C#N)cc2)c2c3cc(-c4cnc5ccccc5c4)ccc3ncc21

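The test systems are human melanoma cell lines, treated with two drugs together for 72 h and then stained and imaged. Each value is the count of nuclei relative to DMSO-treated wells, in %, so that 100 equals the control. Concentrations were fixed for each drug; these are the lower of two levels, a fifth of the higher. These are primary screening values without error estimates.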 Only some of the drugs and lines screened are listed, without regard to their results. A dash means that no value is listed here.

Drugs | COLO 800 | LOX IMVI | LB2518-MEL | IPC-298 | A101D | IST-MEL1 | A375 | A2058 | MEL-HO
A-769662 and OSI-906 | 43.5 | 91.6 | 90.4 | 95.2 | 99.2 | 98.0 | - | 108 | 105
cediranib and pioglitazone | 109 | 113 | 99.7 | 102 | 105 | 102 | 117 | 110 | 93.4
NVP-BEZ235 and fludarabine | 88.5 | 83.8 | 103 | 87.9 | 88.1 | 92.1 | 25.9 | 91.4 | 88.7
fludarabine and CHIR-265 | 118 | 48.4 | 65.4 | 61.8 | 57.1 | 82.2 | 16.0 | 83.9 | 77.2
cediranib and A-769662 | 78.2 | 95.5 | 83.0 | 105 | 96.2 | 95.9 | 90.7 | 96.9 | 94.2
CHIR-265 and pioglitazone | 69.4 | 101 | 55.8 | 63.4 | 75.1 | 86.8 | 61.0 | 95.4 | 80.4
everolimus and cediranib | 51.5 | 111 | 63.3 | 64.0 | 67.4 | 89.9 | 56.7 | 64.6 | 73.8
OSI-906 and NVP-BEZ235 | 58.7 | 84.8 | 88.5 | 87.9 | 73.5 | 88.8 | 45.9 | 61.5 | 88.6
pioglitazone and A-769662 | 99.0 | 109 | 101 | 109 | 107 | 105 | 91.1 | 97.5 | 111
CHIR-265 and everolimus | 56.1 | 72.5 | 49.1 | 53.8 | 57.8 | 76.5 | 44.3 | 57.3 | 70.8
OSI-906 and everolimus | 30.7 | 95.9 | 57.8 | 55.3 | 74.8 | 80.4 | 68.9 | 61.1 | 58.7
OSI-906 and fludarabine | 42.7 | 80.3 | - | 88.5 | 106 | 86.5 | 15.2 | 83.5 | 84.3
ENMD-2076 and OSI-906 | 42.2 | 98.3 | 86.6 | 96.2 | 111 | 111 | 60.2 | 84.2 | 99.1
fludarabine and cediranib | 91.8 | 90.2 | 105 | 96.5 | 91.6 | 94.1 | 15.7 | 97.9 | 98.7
everolimus and ENMD-2076 | 66.1 | 63.8 | 66.4 | 67.0 | 74.3 | 85.1 | 51.3 | 63.3 | 64.9
NVP-BEZ235 and A-769662 | 102 | 157 | 99.2 | 94.4 | 83.7 | 92.9 | - | 98.4 | 76.0
ENMD-2076 and CHIR-265 | 83.2 | 95.8 | - | 69.3 | 60.3 | 98.7 | 74.4 | 79.3 | 83.2
pioglitazone and everolimus | 67.6 | 70.8 | - | 80.8 | 81.1 | 91.7 | - | 67.3 | 67.6
OSI-906 and cediranib | 17.5 | 171 | 99.4 | 100 | 111 | 109 | 76.7 | 87.2 | 86.5
everolimus and A-769662 | 61.4 | 82.9 | 66.6 | 74.1 | 65.8 | 79.5 | - | 69.1 | 66.3
cediranib and ENMD-2076 | 109 | 69.9 | 81.6 | 99.3 | 92.6 | 92.3 | 67.9 | 90.7 | 99.6
ENMD-2076 and NVP-BEZ235 | 116 | 84.9 | 87.2 | 99.4 | 76.9 | 94.0 | 72.2 | 93.3 | 89.6
A-769662 and fludarabine | 148 | 92.7 | 96.5 | 97.9 | 93.4 | 93.8 | - | 92.7 | 91.3
ENMD-2076 and pioglitazone | 90.9 | 93.1 | 108 | 106 | 102 | 99.3 | - | 94.3 | 94.3
ENMD-2076 and A-769662 | 91.0 | 115 | 102 | 97.7 | 95.4 | 99.8 | - | 99.3 | 96.3
CHIR-265 and A-769662 | 60.6 | 88.5 | 56.3 | 64.4 | 64.5 | 90.1 | 78.1 | 90.6 | 75.4
NVP-BEZ235 and pioglitazone | 138 | 77.7 | 106 | 96.1 | 81.0 | 87.2 | - | 94.8 | 93.1
fludarabine and everolimus | 62.8 | 35.1 | 79.5 | 85.0 | 68.5 | 70.4 | 19.3 | 65.0 | 64.5
cediranib and NVP-BEZ235 | 140 | 92.3 | 97.7 | 96.8 | 93.0 | 90.8 | 65.1 | 83.7 | 92.1
OSI-906 and CHIR-265 | 68.3 | 60.1 | 47.3 | 51.9 | 59.6 | 98.7 | 39.5 | 86.5 | 66.5
OSI-906 and pioglitazone | 96.7 | 70.5 | 90.3 | 94.3 | 110 | 96.6 | - | 93.0 | 111
CHIR-265 and NVP-BEZ235 | 88.2 | 90.5 | 46.0 | 47.7 | 61.9 | 84.1 | 58.2 | 58.6 | 75.7
ENMD-2076 and fludarabine | 129 | 89.2 | 109 | 101 | 104 | 93.2 | 18.3 | 104 | 110

The first 2 entries again:

| Drugs | COLO 800 | LOX IMVI | LB2518-MEL | IPC-298 | A101D | IST-MEL1 | A375 | A2058 | MEL-HO |
|---|---|---|---|---|---|---|---|---|---|
| A-769662 and OSI-906 | 43.5 | 91.6 | 90.4 | 95.2 | 99.2 | 98.0 | - | 108 | 105 |
| cediranib and pioglitazone | 109 | 113 | 99.7 | 102 | 105 | 102 | 117 | 110 | 93.4 |